Test results reported in patent publication US6399745B1, “Use of leptin antagonists for treating insulin resistance in type II diabetes” (Aventis Pharma Deutschland GmbH, priority 1996, dated 2002).
Not every detail of the peptide structures is certain; ends, links or a residue may be inferred. Bridges are numbered along the chain shown (N, C = ends). Where no end group is shown, it is not given here.

What was measured:
isolated rat adipocytes [1] = assay: Antagonism of fragment 116-167 to the leptin effect: insulin-stimulated glucose transport; type: cell-based; conditions: for Glucose Transport, stimulation factor for insulin (stimulated/basal): 17.5 h, Insulin: 5 nM
Experimental: Adipocytes were prepared from the epididymal fat tissue of male Wistar rats (140-160 g, Hoechst AG breeding station, Kastengrund) by means of digesting with collagenase (Rodbell, 1964, J. Biol. Chem. 239, 375-380), washed twice with KRH (25 mM Hepes free acid, 25 mM Hepes sodium salt, 80 mM NaCl, 1 mM MgSO4, 2 mM CaCl2, 6 mM KCl, 1 mM sodium pyruvate, 0.5% BSA) and once with DMEM (Dulbecco's minimal essential medium), supplemented with 5.5 mM glucose, 20 mM Hepes (pH 7.4), 2% fetal calf serum, 1% BSA, 50 U of penicillin/ml, […], by means of flotation (800×g, 1 min, in small plastic tubes), and finally diluted to a volume of 20 ml of DMEM/g wet weight of the fat tissue (cell titer: approximately 2.5×10^5 cells/ml).
The adipocytes were incubated, at 37° C. for 15-18 h under an atmosphere of 5% CO2 and with gentle shaking, in supplemented (see above) DMEM in the presence of 100 nM phenylisopropyladenosine (4 ml of DMEM to 1 ml of cells, cell titer approximately 5×10^4 cell/ml, in 50 ml sterile polypropylene: tubes) and in the presence or absence of leptin. The adipocytes were subsequently washed three times with cold KRH and adjusted to a cell titer of approximately 3×10^5 cells/ml by adding 0.7 ml of glucose-free KRH to the cell layer which remained after the complete removal of the last washing solution. In order to determine the capacity of the adipocytes to be stimulated by insulin, and their sensitivity to insulin, following the primary culture, the washed adipocytes were incubated at 37° C. for 20 min in the absence or presence of human insulin (0.02-50 nM final concentration), and glucose transport or lipogenesis was then measured.
Glucose transport was measured as the specific uptake of the non-metabolizable glucose analog 2-deoxyglucose (Muller and Wied, 1993, Diabetes 42, 1852-1867). 50 μl of the adipocyte suspension in KRH, which suspension had or had not been preincubated with insulin (see above), were incubated, at 25° C. for 5 min, with 50 μl of KRH which was supplemented with 2-deoxy-D-[2,6-^3H]glucose (0.5 μCi, 0.2 mM). The incubation mixtures were transferred to thin soft-plastic centrifuge tubes, each of which already contained 200 μl of dinonyl phthalate oil, and immediately centrifuged (2,000×g, 30 sec). Using special shears, the tubes were severed within the oil layer (in the vicinity of the upper edge) and the upper halves of the tubes, together with the cell layers which had in each case been floated onto the oil layer, were transferred to scintillation vials. After 10 ml of scintillation fluid (water-based) had been added, the radioactivity associated with the cells was measured. In order to correct for 2-deoxyglucose which had become enclosed in the cell interstices, or had diffused into the cells, in a non-specific manner, the radioactivity of cells which had been preincubated with cytochalasin B (20 μM) was subtracted from the total cell-associated radioactivity of each individual incubation mixture (Gliemann et al., 1972, Biochim. Biophys. Acta 286, 1-9).
Isolated rat adipocytes were incubated for 17.5 h in primary culture in the presence or absence of leptin (10 nM) and increasing concentrations of leptin fragment 116-167. The cells were then washed and tested for stimulation of glucose transport or lipogenesis by 5 nM insulin. The stimulation factor for insulin was calculated as the ratio between the insulin-stimulated activity and the basal activity. Each value represents the mean from two independent adipocyte cultures with activity being determined three times in each case.

isolated rat adipocytes [2] = assay: Antagonism of fragment 116-167 to the leptin effect: insulin-stimulated lipogenesis; type: cell-based; conditions: 17.5 h, Insulin: 5 nM
Experimental: Adipocytes were prepared from the epididymal fat tissue of male Wistar rats (140-160 g, Hoechst AG breeding station, Kastengrund) by means of digesting with collagenase (Rodbell, 1964, J. Biol. Chem. 239, 375-380), washed twice with KRH (25 mM Hepes free acid, 25 mM Hepes sodium salt, 80 mM NaCl, 1 mM MgSO4, 2 mM CaCl2, 6 mM KCl, 1 mM sodium pyruvate, 0.5% BSA) and once with DMEM (Dulbecco's minimal essential medium), supplemented with 5.5 mM glucose, 20 mM Hepes (pH 7.4), 2% fetal calf serum, 1% BSA, 50 U of penicillin/ml, […], by means of flotation (800×g, 1 min, in small plastic tubes), and finally diluted to a volume of 20 ml of DMEM/g wet weight of the fat tissue (cell titer: approximately 2.5×10^5 cells/ml). The adipocytes were incubated, at 37° C. for 15-18 h under an atmosphere of 5% CO2 and with gentle shaking, in supplemented (see above) DMEM in the presence of 100 nM phenylisopropyladenosine (4 ml of DMEM to 1 ml of cells, cell titer approximately 5×10^4 cell/ml, in 50 ml sterile polypropylene: tubes) and in the presence or absence of leptin. The adipocytes were subsequently washed three times with cold KRH and adjusted to a cell titer of approximately 3×10^5 cells/ml by adding 0.7 ml of glucose-free KRH to the cell layer which remained after the complete removal of the last washing solution. In order to determine the capacity of the adipocytes to be stimulated by insulin, and their sensitivity to insulin, following the primary culture, the washed adipocytes were incubated at 37° C. for 20 min in the absence or presence of human insulin (0.02-50 nM final concentration), and glucose transport or lipogenesis was then measured. Lipogenesis was measured as the incorporation of D-glucose into toluene-extractable lipids (Moody et al., 1974, Horm. Metab. Res. 6, 12-16). 200 μl of the adipocyte suspension in KRH were incubated in scintillation vials, at 37° C. for 20 min, in 680 μl of KRH which was supplemented with 3.5 mM glucose and 20 μl of insulin solution. Lipogenesis was started by adding 100 μl of D-[3-^3H]glucose (25 μCi/ml KRH). After incubating at 37° C., and gently shaking under an atmosphere of 5% CO2, for 90 min, 10 ml of scintillation fluid (toluene-based) were added and the radioactivity in the toluene phase was determined after shaking vigorously and subsequent phase separation (at least 4 h of incubation). The radioactivity of the lipids in the toluene phase was corrected for the radioactivity of an incubation mixture which contained the same quantity of [^3H]glucose but no cells. Isolated rat adipocytes were incubated for 17.5 h in primary culture in the presence or absence of leptin (10 nM) and increasing concentrations of leptin fragment 116-167. The cells were then washed and tested for stimulation of glucose transport or lipogenesis by 5 nM insulin. The stimulation factor for insulin was calculated as the ratio between the insulin-stimulated activity and the basal activity. Each value represents the mean from two independent adipocyte cultures with activity being determined three times in each case.

[3] = fragment 0.3 nM + Leptin: 10 nM
[4] = fragment 100 nM + Leptin: 10 nM
[5] = fragment 300 nM + Leptin: 10 nM

SCSLPQTSGLQKPESLDGVLEASLYSTEVVALSRLQGSLQDILQQLDVSPEC (disulfide 2-52) [Fragment 116-167]
effect of antagonist on leptin-induced insulin resistance (isolated rat adipocytes [1]; approx. 15 hours, 10 nM leptin, different fragment concentrations, 5 nM insulin): restoration of the capacity to be stimulated by inulin | Glucose Transport, stimulation factor for insulin (stimulated/basal) (isolated rat adipocytes [1]; [3]): 3.65 | Glucose Transport, stimulation factor for insulin (stimulated/basal) (isolated rat adipocytes [1]; fragment 1 nM + Leptin: 10 nM): 4.5 | Glucose Transport, stimulation factor for insulin (stimulated/basal) (isolated rat adipocytes [1]; fragment 3 nM + Leptin: 10 nM): 5.75 | Glucose Transport, stimulation factor for insulin (stimulated/basal) (isolated rat adipocytes [1]; fragment 10 nM + Leptin: 10 nM): 7.75 | Glucose Transport, stimulation factor for insulin (stimulated/basal) (isolated rat adipocytes [1]; fragment 30 nM + Leptin: 10 nM): 10.8 | Glucose Transport, stimulation factor for insulin (stimulated/basal) (isolated rat adipocytes [1]; [4]): 12.55 | Glucose Transport, stimulation factor for insulin (stimulated/basal) (isolated rat adipocytes [1]; [5]): 13.2 | Lipogenesis, stimulation factor for insulin (stimulated/basal) (isolated rat adipocytes [2]; [3]): 1.65 | Lipogenesis, stimulation factor for insulin (stimulated/basal) (isolated rat adipocytes [2]; fragment 1 nM + Leptin: 10 nM): 2.15 | Lipogenesis, stimulation factor for insulin (stimulated/basal) (isolated rat adipocytes [2]; fragment 3 nM + Leptin: 10 nM): 2.65 | Lipogenesis, stimulation factor for insulin (stimulated/basal) (isolated rat adipocytes [2]; fragment 10 nM + Leptin: 10 nM): 3.1 | Lipogenesis, stimulation factor for insulin (stimulated/basal) (isolated rat adipocytes [2]; fragment 30 nM + Leptin: 10 nM): 3.6 | Lipogenesis, stimulation factor for insulin (stimulated/basal) (isolated rat adipocytes [2]; [4]): 4 | Lipogenesis, stimulation factor for insulin (stimulated/basal) (isolated rat adipocytes [2]; [5]): 4
